Measurements reported in PubChem BioAssay AID686937 (Drosophila RNAi Screening Center, 2013)

Assay: 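Knock-downs that reduce output of a secreted reporter enzyme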 (primary screen)
System: Drosophila S2 cells expressing secreted horseradish peroxidase
Knock-down reagent: long dsRNA against Drosophila genes
Duration: about 5.5 days (5 days dsRNA, then 12 h reporter induction)
Conditions: reporter expression induced after 5 days of dsRNA, read 12 h later; inducer not stated
Measured: 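Chemiluminescent measurement of peroxidase in the medium 12 h after reporter induction, following 5 days of dsRNA, given as a z-score per plate; higher means more secretion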
Direction: z-score: higher = more reporter secreted into medium
The screen tested about 23,000 reagents; below is a random part of those that have a named target and a result. 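Reduced-secretion tags in replicate 1 do not always agree with the z-scores; no criterion for assigning the tags was given.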 A plus sign joins genes that one reagent is predicted to hit. Further read-outs or replicates are left out here. Not stated in the record: the amount of reagent.

Silencing of Gr8a [DRSC18043] came out at: z-score, replicate 1 = 0.1.
Arts + Apl [DRSC10349] scored z-score, replicate 1 = 0.38.
Against mthl11 [DRSC12779], the values are z-score, replicate 1 = 0.26.
After knock-down of CG3632 [DRSC19137] the results were z-score, replicate 1 = 0.58.
After knock-down of CG3632 [DRSC19871] the results were z-score, replicate 1 = 0.31.
Against Tig [DRSC03456], the values are z-score, replicate 1 = -0.73.
Against CG18661 [DRSC02690], the values are z-score, replicate 1 = 0.53.
Gr33a [DRSC02589] scored z-score, replicate 1 = 0.05.
CG10465 [DRSC04848] showed z-score, replicate 1 = 0.14.
With knock-down of CG5762 [DRSC15869], the record shows z-score, replicate 1 = 0.24.
Pgant7 [DRSC19991] scored z-score, replicate 1 = 0.08.
Knock-down of Pde1c [DRSC02421] gave: z-score, replicate 1 = 0.32.
Pde1c [DRSC02422] scored z-score, replicate 1 = 0.16.
Pde1c [DRSC02423] scored z-score, replicate 1 = 0.63.
Pde1c [DRSC02424] showed z-score, replicate 1 = 0.49.
Against Pde1c [DRSC02425] the deposit lists z-score, replicate 1 = 0.6.
Pde1c [DRSC02426] showed z-score, replicate 1 = 0.81.
rha [DRSC17044] showed z-score, replicate 1 = 0.29.
Silencing of Droj2 [DRSC16450] resulted in: z-score, replicate 1 = -0.65.
cmpy [DRSC11701] showed z-score, replicate 1 = 0.21.
For cmet [DRSC03511], the entry reads z-score, replicate 1 = 0.25.
asRNA:CR43433 + Rbp6 [DRSC09464] gave z-score, replicate 1 = 0.68.
Depletion of CG15356 [DRSC00386] gave: z-score, replicate 1 = 0.36.
After knock-down of CG31776 [DRSC00716], the record shows z-score, replicate 1 = 0.35.
After knock-down of RhoGAP5A [DRSC18294], the record shows z-score, replicate 1 = 0.52.
For Np [DRSC06089], the entry reads z-score, replicate 1 = 0.41.
Against Np [DRSC07094] the deposit lists z-score, replicate 1 = 0.02.
With knock-down of Np [DRSC22421], the record shows z-score, replicate 1 = -0.03.
Against Hou [DRSC20001], the values are z-score, replicate 1 = 0.18.
Hou [DRSC22347] gave z-score, replicate 1 = -0.44.
With knock-down of CG42249 [DRSC19383], the screen gave z-score, replicate 1 = 0.3.
CG42249 [DRSC19826] scored z-score, replicate 1 = 0.54.
Silencing of Orct2 [DRSC14613] came out at: z-score, replicate 1 = 0.27.
For eIF4A [DRSC03526], the entry reads z-score, replicate 1 = -6.41; phenotype, replicate 1 = reduced secretion.
CG15472 [DRSC18055] scored z-score, replicate 1 = 0.41.
For CG14568 [DRSC11729], the values are z-score, replicate 1 = 0.36.
Against Ppa [DRSC04598], the values are z-score, replicate 1 = 0.22.
CG3342 [DRSC18304] gave z-score, replicate 1 = 0.39.
CG10904 [DRSC04084] scored z-score, replicate 1 = 0.42.
Silencing of CG3091 [DRSC18274] resulted in: z-score, replicate 1 = 0.
Against wash [DRSC06302], the values are z-score, replicate 1 = 0.34.
cocoon [DRSC10916] scored z-score, replicate 1 = 0.46.
CG3565 [DRSC04389] gave z-score, replicate 1 = 0.25.
Knock-down of Six4 [DRSC11881] came out at: z-score, replicate 1 = 0.46.
Rift [DRSC14330] showed z-score, replicate 1 = 0.22.
After knock-down of CG14257 [DRSC14752] the results were z-score, replicate 1 = 0.33.
With knock-down of HPS1 [DRSC06195], the screen gave z-score, replicate 1 = 0.15.
CadN [DRSC03286] showed z-score, replicate 1 = 0.16.
LpR2 [DRSC13726] showed z-score, replicate 1 = 0.71.
Knock-down of LpR2 [DRSC13728] resulted in: z-score, replicate 1 = 0.31.
LpR2 [DRSC15655] gave z-score, replicate 1 = 0.27.
Against LpR2 [DRSC15658] the deposit lists z-score, replicate 1 = 0.39.

As entered above:
For “z-score, replicate 1”, CG15356 [DRSC00386] reads 0.36
Entry for LpR2 [DRSC13726] in “z-score, replicate 1”: 0.71
Value of CG18661 [DRSC02690] under “z-score, replicate 1”: 0.53
For “z-score, replicate 1”, Pde1c [DRSC02421] has 0.32
Under “z-score, replicate 1”, asRNA:CR43433 + Rbp6 [DRSC09464] has 0.68
Value for LpR2 [DRSC15655] in “z-score, replicate 1”: 0.27
